Measured values from doi:10.1101/2020.08.03.234260.
No constants are given. Whether binding was seen depends on the method and setting. In cells and extracts the contact can be indirect. Some binding calls cover weakened binding; strength is not graded here.

Amino acid sequences for entries named in this document (tags omitted).
UniProt Q6PDQ2: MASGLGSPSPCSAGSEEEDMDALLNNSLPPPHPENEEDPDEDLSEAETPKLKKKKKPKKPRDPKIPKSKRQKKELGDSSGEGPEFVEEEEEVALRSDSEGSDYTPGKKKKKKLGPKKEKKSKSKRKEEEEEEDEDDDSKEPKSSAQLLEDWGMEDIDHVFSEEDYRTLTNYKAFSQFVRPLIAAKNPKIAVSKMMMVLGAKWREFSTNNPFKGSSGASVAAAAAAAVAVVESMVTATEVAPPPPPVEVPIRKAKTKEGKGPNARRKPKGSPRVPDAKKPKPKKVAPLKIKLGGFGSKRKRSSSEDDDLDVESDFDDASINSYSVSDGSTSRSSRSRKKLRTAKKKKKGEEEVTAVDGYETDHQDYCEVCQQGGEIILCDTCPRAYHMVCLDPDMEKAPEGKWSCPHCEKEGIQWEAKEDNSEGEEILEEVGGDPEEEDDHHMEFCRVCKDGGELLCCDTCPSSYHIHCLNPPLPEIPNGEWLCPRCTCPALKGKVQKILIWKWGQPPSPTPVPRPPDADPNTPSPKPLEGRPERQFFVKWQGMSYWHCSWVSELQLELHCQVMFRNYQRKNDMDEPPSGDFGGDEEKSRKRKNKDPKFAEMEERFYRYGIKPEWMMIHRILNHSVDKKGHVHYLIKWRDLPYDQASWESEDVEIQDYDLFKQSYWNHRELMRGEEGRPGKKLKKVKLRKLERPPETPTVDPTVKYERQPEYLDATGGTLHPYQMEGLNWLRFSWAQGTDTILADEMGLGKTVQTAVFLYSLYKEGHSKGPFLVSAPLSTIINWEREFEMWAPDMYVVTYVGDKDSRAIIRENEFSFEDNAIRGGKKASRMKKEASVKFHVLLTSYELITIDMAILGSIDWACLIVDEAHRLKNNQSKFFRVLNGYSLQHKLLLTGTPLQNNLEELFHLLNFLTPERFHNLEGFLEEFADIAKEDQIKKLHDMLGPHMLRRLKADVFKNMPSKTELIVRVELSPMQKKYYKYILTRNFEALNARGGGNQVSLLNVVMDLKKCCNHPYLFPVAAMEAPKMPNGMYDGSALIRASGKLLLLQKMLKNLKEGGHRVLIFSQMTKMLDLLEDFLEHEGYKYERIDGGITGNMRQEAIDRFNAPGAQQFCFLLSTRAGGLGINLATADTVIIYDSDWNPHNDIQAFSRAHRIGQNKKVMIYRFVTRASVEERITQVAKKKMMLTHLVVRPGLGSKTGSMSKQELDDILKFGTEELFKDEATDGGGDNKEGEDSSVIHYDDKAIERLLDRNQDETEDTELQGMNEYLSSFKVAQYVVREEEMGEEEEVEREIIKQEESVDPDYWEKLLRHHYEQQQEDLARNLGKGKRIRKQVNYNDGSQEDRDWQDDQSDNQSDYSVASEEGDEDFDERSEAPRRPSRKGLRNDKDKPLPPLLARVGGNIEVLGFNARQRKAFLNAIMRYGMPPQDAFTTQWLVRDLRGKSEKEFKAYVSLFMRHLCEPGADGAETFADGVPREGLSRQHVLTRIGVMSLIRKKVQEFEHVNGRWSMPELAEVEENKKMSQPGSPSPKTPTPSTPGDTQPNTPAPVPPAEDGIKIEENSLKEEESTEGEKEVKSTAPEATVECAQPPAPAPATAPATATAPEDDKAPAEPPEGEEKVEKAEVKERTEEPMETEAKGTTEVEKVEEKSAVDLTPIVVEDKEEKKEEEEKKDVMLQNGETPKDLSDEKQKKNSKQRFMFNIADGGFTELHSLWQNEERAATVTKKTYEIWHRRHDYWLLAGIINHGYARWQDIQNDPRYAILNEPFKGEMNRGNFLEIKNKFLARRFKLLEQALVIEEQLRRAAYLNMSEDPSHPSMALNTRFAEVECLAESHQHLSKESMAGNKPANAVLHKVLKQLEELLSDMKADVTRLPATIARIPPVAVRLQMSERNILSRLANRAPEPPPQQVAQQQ
UniProt O09106: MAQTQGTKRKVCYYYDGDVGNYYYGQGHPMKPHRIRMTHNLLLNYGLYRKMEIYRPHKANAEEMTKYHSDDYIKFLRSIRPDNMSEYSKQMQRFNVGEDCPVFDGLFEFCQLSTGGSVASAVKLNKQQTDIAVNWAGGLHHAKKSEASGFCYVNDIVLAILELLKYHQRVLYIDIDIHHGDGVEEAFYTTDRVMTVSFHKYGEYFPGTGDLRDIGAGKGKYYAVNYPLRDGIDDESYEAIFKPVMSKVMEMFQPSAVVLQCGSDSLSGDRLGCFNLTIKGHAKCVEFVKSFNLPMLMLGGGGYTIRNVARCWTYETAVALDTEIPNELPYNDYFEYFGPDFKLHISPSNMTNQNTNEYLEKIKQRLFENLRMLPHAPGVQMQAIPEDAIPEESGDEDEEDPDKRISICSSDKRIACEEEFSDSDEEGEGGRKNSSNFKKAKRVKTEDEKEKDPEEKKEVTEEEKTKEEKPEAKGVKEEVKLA
UniProt P70288: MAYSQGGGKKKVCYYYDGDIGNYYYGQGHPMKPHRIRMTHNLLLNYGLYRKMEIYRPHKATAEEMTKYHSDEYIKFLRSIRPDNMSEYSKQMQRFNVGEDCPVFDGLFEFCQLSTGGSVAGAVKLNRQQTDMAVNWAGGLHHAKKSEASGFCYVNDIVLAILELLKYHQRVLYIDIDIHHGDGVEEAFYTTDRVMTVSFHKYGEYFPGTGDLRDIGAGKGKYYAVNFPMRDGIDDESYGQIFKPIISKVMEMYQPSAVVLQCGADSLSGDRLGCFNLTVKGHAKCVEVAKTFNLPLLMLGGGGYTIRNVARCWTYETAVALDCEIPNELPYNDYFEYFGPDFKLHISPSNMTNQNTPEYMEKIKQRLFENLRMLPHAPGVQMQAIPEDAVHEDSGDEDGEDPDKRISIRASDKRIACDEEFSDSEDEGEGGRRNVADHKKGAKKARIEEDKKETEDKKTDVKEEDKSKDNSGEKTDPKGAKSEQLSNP

Molecular target: CHD4 (mouse (endogenous in choroid plexus)) (UniProt Q6PDQ2)
Test: co-IP

Row | binding | Substance
1 | binds | HDAC1 (from UniProt O09106 1-482)
2 | binds | HDAC2 (from UniProt P70288 1-488)
